The results in this text go back to paper PMC10571540.

The chains behind the UniProt entries cited, without tags or fusion partners. Residues count along the entry.
UniProt P02647, residues 19-267: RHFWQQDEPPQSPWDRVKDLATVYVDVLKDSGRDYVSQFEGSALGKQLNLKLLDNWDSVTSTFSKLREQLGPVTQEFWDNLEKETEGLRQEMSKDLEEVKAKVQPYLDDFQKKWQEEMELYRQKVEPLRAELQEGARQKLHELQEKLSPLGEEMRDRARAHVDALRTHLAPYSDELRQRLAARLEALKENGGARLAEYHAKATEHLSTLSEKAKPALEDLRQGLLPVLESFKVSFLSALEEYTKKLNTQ

These are yes or no findings as the source states them, for the method shown. In cells and extracts the contact can be indirect. Some binding calls cover weakened binding; strength is not graded here. For part of these data: Tags and fused reporters may be left off the sequences shown.

In assay [1] the target is T1, SIDT2 (endogenous, HepG2 cells) (human (endogenous in HepG2)) (UniProt Q8NBJ9).
T1 sequence: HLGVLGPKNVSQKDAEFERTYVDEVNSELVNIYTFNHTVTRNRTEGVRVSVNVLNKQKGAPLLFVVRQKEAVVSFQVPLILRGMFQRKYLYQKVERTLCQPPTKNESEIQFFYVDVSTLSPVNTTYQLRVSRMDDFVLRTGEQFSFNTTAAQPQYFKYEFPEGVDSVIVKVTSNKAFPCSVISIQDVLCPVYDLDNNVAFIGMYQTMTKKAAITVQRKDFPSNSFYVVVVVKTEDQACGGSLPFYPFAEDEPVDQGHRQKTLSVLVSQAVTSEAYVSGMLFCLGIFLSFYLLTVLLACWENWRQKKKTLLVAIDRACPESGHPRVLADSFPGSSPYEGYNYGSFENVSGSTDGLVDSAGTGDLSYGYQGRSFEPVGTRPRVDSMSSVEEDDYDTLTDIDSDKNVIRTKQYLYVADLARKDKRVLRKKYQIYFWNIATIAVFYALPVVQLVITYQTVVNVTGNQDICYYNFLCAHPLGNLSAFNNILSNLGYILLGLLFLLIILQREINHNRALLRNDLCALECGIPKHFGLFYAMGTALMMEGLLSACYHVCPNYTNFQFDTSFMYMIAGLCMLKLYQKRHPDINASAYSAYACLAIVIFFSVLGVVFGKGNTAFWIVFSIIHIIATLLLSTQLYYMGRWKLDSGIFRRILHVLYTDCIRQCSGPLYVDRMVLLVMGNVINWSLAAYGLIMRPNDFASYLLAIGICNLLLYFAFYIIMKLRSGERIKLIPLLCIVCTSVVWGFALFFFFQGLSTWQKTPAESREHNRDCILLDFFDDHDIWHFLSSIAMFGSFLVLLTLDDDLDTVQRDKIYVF
Description: co-IP; HepG2 cells under control conditions, with scrambled siRNA or with siSIDT2; ApoA1 co-immunoprecipitated with SIDT2, Western blot.

The target of assay [2] is T2, SIDT2 fused to the green fluorescent protein (SIDT2-GFP) (human) (UniProt Q8NBJ9).
T2 sequence: T1 sequence
The assay is described as follows: co-IP; HEK293 cell extracts of co-transfected cells; SIDT2-GFP immunoprecipitated with an anti-GFP antibody; SIDT2 and ApoA1 detected by Western blot.

Assay [3] has as its target T2, SIDT2 fused to the green fluorescent protein (SIDT2-GFP) (human). The assay is described as follows: FRET or BRET; acceptor photobleaching of OFPSpark by confocal microscopy in HEK293 cells co-expressing the GFP donor and the OFPSpark acceptor.

For “ApoA1 (endogenous, HepG2 cells) (from UniProt P02647 19-267)”, the binding result in assay [1] is “binds”.

For “ApoA1 (expressed in HEK293 cells for co-immunoprecipitation) (from UniProt P02647 19-267)”, the binding entry in assay [2] is “binds”.

With “ApoA1 fused to the red fluorescent protein OFPSpark (ApoA1-OFPSpark) (from UniProt P02647 19-267)”, in assay [3], the binding entry is “binds”.
